The chains are these.
B1: ATPase, H+ transporting, lysosomal V1 subunit C2 (protein, UniProt Q99L60 1-427)
chain: MSEFWLISAPGDKENLQALERMNNVTSKSNLSHNTKFAIPDFKVGTLDSLVGLSDELGKLDTFAESLIKRMAQSVVEVMEDSKGKAHETLLANGVDLTSFVTHFEWDMAKYPAKQPLVSVVDTLAKQLAQIETDLKSRTAAYSVLKANLENLEKRSTGNLFTRTLSDIVSKEDFVLDSEYLITLLVIVPKSSFAQWQKTYESLSDMVVPRSTKLIAEDNEGGLFTVTLFRKVIEDFKVKAKENKFIVREFYYDEKEIKREREEMTRLLSDKKQQYPTSCVALKKGSATYRDHKVKVAPLGNPARPAAGQTDRDRESEGEGEGPLLRWLKVNFSEAFIAWIHIKALRVFVESVLRYGLPVNFQAVLLQPHKKSATKRLREVLNSVFRHLDEVAAASILDASVEIPGLQLSNQDYFPYVYFHIDLSLLD
B2: ATPase, H+ transporting, lysosomal V1 subunit G3 (protein, UniProt Q8BMC1 1-118)
chain: MTSQSQGIQQLLQAEKRAKDKLDEAKKRKGKRLRQAKEEAVAETDQYRMQMEKDFRLKQAKIMGSQSHLSDEIEEQTLEKIKELNGSYNKCMESVIKQLLSMVCDMKPEVHVNYRATN
B3: chaperonin containing Tcp1, subunit 7 (eta) (protein, UniProt P80313 1-544)
chain: MMPTPVILLKEGTDSSQGIPQLVSNISACQVIAEAVRTTLGPRGMDKLIVDGRGKATISNDGATILKLLDVVHPAAKTLVDIAKSQDAEVGDGTTSVTLLAAEFLKQVKPYVEEGLHPQIIIRAFRTATQLAVNKIKEIAVTVKKQDKVEQRKMLEKCAMTALSSKLISQQKVFFAKMVVDAVMMLDELLQLKMIGIKKVQGGALEESQLVAGVAFKKTFSYAGFEMQPKKYKNPKIALLNVELELKAEKDNAEIRVHTVEDYQAIVDAEWNILYDKLEKIHQSGAKVILSKLPIGDVATQYFADRDMFCAGRVPEEDLKRTMMACGGSIQTSVNALVPDVLGHCQVFEETQIGGERYNFFTGCPKAKTCTIILRGGAEQFMEETERSLHDAIMIVRRAIKNDSVVAGGGAIEMELSKYLRDYSRTIPGKQQLLIGAYAKALEIIPRQLCDNAGFDATNILNKLRARHAQGGMWYGVDINNENIADNFQAFVWEPAMVRINALTAASEAACLIVSVDETIKNPRSTVDPPAPSAGRGRGQARFH
B4: chaperonin containing Tcp1, subunit 8 (theta) (protein, UniProt P42932 1-548)
chain: MALHVPKAPGFAQMLKDGAKHFSGLEEAVYRNIQACKELAQTTRTAYGPNGMNKMVINRLEKLFVTNDAATILRELEVQHPAAKMIVMASHMQEQEVGDGTNFVLVFAGALLELAEELLRIGLSVSEVISGYEIACKKAHEILPELVCCSAKNLRDVDEVSSLLRTSIMSKQYGSETFLAKLIAQACVSIFPDSGNFNVDNIRVCKILGSGIYSSSVLHGMVFKKETEGDVTSVKDAKIAVYSCPFDGMITETKGTVLIKTAEELMNFSKGEENLMDAQVKAIAGTGANVIVTGGKVADIALHYANKYNIMLVRLNSKWDLRRLCKTVGATALPKLTPPVQEEMGHCDSVYLSEVGDTQVVVFKHEKEDGAISTIVLRGSTDNLMDDIERAVDDGVNTFKVLTRDKRLVPGGGATEIELAKQITSYGETCPGLEQYAIKKFAEAFEAIPRALAENSGVKANEVISKLYSVHQEGNKNVGLDIEAEVPAVKDMLEASILDTYLGKYWAIKLATNAAVTVLRVDQIIMAKPAGGPKPPSGKKDWDDDQND

Protein sequences, listed by entry. Tags and fused reporters are not part of them.
UniProt Q91YH6: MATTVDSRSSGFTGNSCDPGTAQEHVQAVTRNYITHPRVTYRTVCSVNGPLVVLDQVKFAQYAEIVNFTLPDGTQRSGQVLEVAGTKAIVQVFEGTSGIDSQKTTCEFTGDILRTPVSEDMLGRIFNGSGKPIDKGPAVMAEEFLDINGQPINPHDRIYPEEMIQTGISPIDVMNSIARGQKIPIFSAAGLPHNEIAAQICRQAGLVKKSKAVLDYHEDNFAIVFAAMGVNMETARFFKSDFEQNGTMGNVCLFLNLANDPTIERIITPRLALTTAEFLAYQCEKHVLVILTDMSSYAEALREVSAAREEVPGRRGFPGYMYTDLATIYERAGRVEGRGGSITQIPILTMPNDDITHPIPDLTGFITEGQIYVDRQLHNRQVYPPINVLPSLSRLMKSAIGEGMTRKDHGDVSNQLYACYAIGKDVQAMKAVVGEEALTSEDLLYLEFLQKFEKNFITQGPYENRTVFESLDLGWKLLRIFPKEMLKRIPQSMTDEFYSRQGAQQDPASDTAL

These results are taken from PMC4595830.

Results are given in words; binding and its absence hold for the method and conditions named. Binding seen in cells or lysates may run through a third protein. Here binding means that the protein was enriched with, or labelled near, the bait; the list need not be complete.

This assay concerns the target ATPase, H+ transporting, lysosomal V1 subunit B1 (mouse (endogenous in kidney)) (UniProt Q91YH6). In words: affinity purification with mass spectrometry; anti-ATP6V1B1 antibodies cross-linked to Protein A/G Plus agarose; mouse kidney lysate (20 mM Hepes-NaOH pH 7.5, 150 mM NaCl, 1% NP-40); SDS-PAGE, LC-MS/MS, scored with CRAPome/SAINT against beads-only, B1-knockout and peptide-blocked controls.
Turning to B1, the binding result was “binds”.

For B2, the binding entry is “binds”.

B3: the binding entry is recorded as “binds”.

On to B4, for which the binding entry is given as “binds”.
